Test results taken from US20230203506A1, “LACTIC ACID OPTICAL PROBE, PREPARATION METHOD THEREFOR AND APPLICATION THEREOF” (East China University of Science and Technology, priority 2019, published 2023).
Some entries share one result that the patent states for a list of compounds.

test: Lactate response detection of purified probe (signal with 10 mM lactate divided by signal without lactate); assay type: biochemical; settings: detection signal with 10 mM lactate divided by signal without lactate
Method: 4. After purified proteins were subjected to SDS-PAGE, probes were diluted to a protein solution having a final concentration of 5-10 μM using assay buffer (100 mm HEPES, 100 mM NaCl, pH 7.3) or phosphate buffer PBS.
6. […] The fluorescence excitation and emission determination of the samples were done using a multifunctional fluorescence microplate reader.
Mutants of the two sites, 189 and 190, were constructed on the basis of LldR(80-258)-185/189-cpYFP. Plasmid pCDFDuet-LldR(80-258)-185/189-cpYFP was linearized by reverse PCR, mutations were introduced at mutation sites by primers, and the obtained PCR products was ligated by adding phosphorus with PNK, T4 DNA ligase, and PEG4000, transformed into BL21 (DE3), and then screened. […] Exemplary nucleic acid sequences were shown in SEQ ID No: 31 (LldR(80-258)-185/189-P189F/P190D-cpYFP).

| Substance | response to lactate |
| --- | --- |
| 185/190-cpYFP: lactate optical probe, cpYFP inserted at 185/190 of LldR(80-258) | more than 1.5 fold |
| 189/191-cpYFP: lactate optical probe, cpYFP inserted at 189/191 of LldR(80-258) | more than 1.5 fold |
| 187/189-cpYFP: lactate optical probe, cpYFP inserted at 187/189 of LldR(80-258) | more than 1.5 fold |
| P189N/P190Y: LldR(80-258)-185/189-cpYFP mutant | more than 2 fold |
| P189C/P190Y: LldR(80-258)-185/189-cpYFP mutant | more than 2 fold |
| P189/P190(WT): lactate optical probe, cpYFP inserted at 185/189 of LldR(80-258), unmutated | more than 2 fold |
| 186/190-cpYFP: lactate optical probe, cpYFP inserted at 186/190 of LldR(80-258) | more than 1.5 fold |
| P189N: LldR(80-258)-185/189-cpYFP mutant | more than 2 fold |
| 186/189-cpYFP: lactate optical probe, cpYFP inserted at 186/189 of LldR(80-258) | more than 1.5 fold |
| P189R/P190I: LldR(80-258)-185/189-cpYFP mutant | more than 2 fold |
| P189H/P190R: LldR(80-258)-185/189-cpYFP mutant | more than 2 fold |
| P189C/P190F: LldR(80-258)-185/189-cpYFP mutant | more than 2 fold |
| P189S: LldR(80-258)-185/189-cpYFP mutant | more than 2 fold |
| 186/188-cpYFP: lactate optical probe, cpYFP inserted at 186/188 of LldR(80-258) | more than 1.5 fold |
| 190/191-cpYFP: lactate optical probe, cpYFP inserted at 190/191 of LldR(80-258) | more than 1.5 fold |
| 185/186-cpYFP: lactate optical probe, cpYFP inserted at 185/186 of LldR(80-258) | more than 1.5 fold |
| 186/187-cpYFP: lactate optical probe, cpYFP inserted at 186/187 of LldR(80-258) | more than 1.5 fold |
| 185/187-cpYFP: lactate optical probe, cpYFP inserted at 185/187 of LldR(80-258) | more than 1.5 fold |
| P189N/P190F: LldR(80-258)-185/189-cpYFP mutant | more than 2 fold |
| 185/188-cpYFP: lactate optical probe, cpYFP inserted at 185/188 of LldR(80-258) | more than 1.5 fold |
| P189F/P190H: LldR(80-258)-185/189-cpYFP mutant | more than 2 fold |

same assay, conditions: detection signal with 10 mM lactate divided by signal without lactate; listed as 185/189-cpYFP

| Substance | response to lactate |
| --- | --- |
| P189/P190(WT): lactate optical probe, cpYFP inserted at 185/189 of LldR(80-258), unmutated | more than 1.5 fold |
